Among the data in PMC5694546 are binding values, retold here.

Sequences of proteins named here, by UniProt entry; tags and fusion partners are left off. Residues count along the entry.
UniProt O87120, residues 16-222: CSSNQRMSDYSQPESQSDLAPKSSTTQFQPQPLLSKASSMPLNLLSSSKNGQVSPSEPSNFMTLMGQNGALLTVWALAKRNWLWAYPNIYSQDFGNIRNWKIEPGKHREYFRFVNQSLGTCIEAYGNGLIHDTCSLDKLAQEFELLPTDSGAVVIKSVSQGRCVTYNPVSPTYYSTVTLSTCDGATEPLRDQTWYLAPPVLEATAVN

No constants are given. Whether binding was seen depends on the method and setting. Binding seen in cells or lysates may run through a third protein.

The target in the experiment is T1, cellugyrin (synaptogyrin 2) (human (endogenous in Jurkat, HPBMC and HeLa)) (UniProt O43760).
T1 sequence: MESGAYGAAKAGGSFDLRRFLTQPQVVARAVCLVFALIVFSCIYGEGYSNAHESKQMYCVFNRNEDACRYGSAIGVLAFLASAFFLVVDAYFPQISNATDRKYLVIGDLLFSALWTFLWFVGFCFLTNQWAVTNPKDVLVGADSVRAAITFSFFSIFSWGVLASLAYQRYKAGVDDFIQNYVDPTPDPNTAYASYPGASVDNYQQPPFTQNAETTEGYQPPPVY
Put plainly: co-IP.

Regarding “Aggregatibacter actinomycetemcomitans cytolethal distending toxin subunit A (CdtA) (from UniProt O87120 16-222)”, the binding result is recorded as “no binding”.
